Measurements reported in PubChem BioAssay AID504784 (Drosophila RNAi Screening Center, 2011)
Test: 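Search for regulators of lipid droplet storage in oleate-fed fly cells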 (primary screen). Cell system: Drosophila Kc167 embryonic cells. Knock-down reagent: long dsRNA against Drosophila genes, about 250 ng dsRNA per well. Timing: 4 days. Conditions: cells fed 400 µM oleic acid bound to BSA. Measured: 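Cells imaged and segmented; ratio of lipid droplet area to nuclear area, log-transformed, then normalised as a B-score over the screen; higher means more stored lipid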. Direction: droplet/nuclear area B-score: higher = more stored lipid (overstorage).
In all, the deposit lists about 17,000 reagents; this is an unselected part of those that have a named target and a result. 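Each column is one replicate's B-score; the combined score over replicates was not deposited, so single values may mislead.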 A plus sign joins genes that one reagent is predicted to hit. Further read-outs or replicates are left out here.

predicted target | DRSC id | droplet/nuclear area B-score, replicate 1
ppk5 (GeneID 2768987) | DRSC11492 | 1.23
Gr10a (GeneID 117501) | DRSC18897 | 0.114
Gr10a (GeneID 117501) | DRSC22792 | -0.61
CG8630 (GeneID 41629) | DRSC16441 | -0.034
CG11475 (GeneID 37513) | DRSC04113 | -0.618
CG15533 (GeneID 43612) | DRSC15069 | -0.118
Trf4-1 (GeneID 31795) | DRSC17775 | -3.46
Src64B (GeneID 48973) | DRSC08700 | 1.46
mys (GeneID 44885) | DRSC18799 | 1.61
Alp9 (GeneID 38633) | DRSC10486 | -1.64
CG32354 (GeneID 50302) | DRSC10763 | 0.819
CG32354 (GeneID 50302) | DRSC10775 | -1.68
CG32354 (GeneID 50302) | DRSC21919 | 4.52
CG1695 (GeneID 33046) | DRSC20538 | -0.706
Past1 (GeneID 41569) | DRSC16784 | -0.375
sev (GeneID 32039) | DRSC20372 | 1.24
TTLL3A (GeneID 33947) | DRSC02143 | -0.503
PyK (GeneID 42620) | DRSC16806 | -2.59
Fum3 (GeneID 39281) | DRSC10592 | -0.138
brv2 (GeneID 39932) | DRSC10226 | -0.314
Cdc6 (GeneID 38989) | DRSC10563 | -0.0296
Klp3A (GeneID 31240) | DRSC18676 | 1.4
Klp3A (GeneID 31240) | DRSC21625 | -0.75
ppk17 (GeneID 35006) | DRSC02252 | -0.247
CG12817 + CG12420 | DRSC22814 | -0.381
CG13137 (GeneID 34349) | DRSC02234 | -0.671
CG15771 (GeneID 31500) | DRSC18077 | 3.67
CG12106 (GeneID 31856) | DRSC17805 | 0.251
CG9300 (GeneID 40128) | DRSC11064 | -0.0253
Ir67a (GeneID 39110) | DRSC09897 | -1.54
Flo2 (GeneID 32425) | DRSC19062 | 1.12
Flo2 (GeneID 32425) | DRSC20244 | 1.33
CG1360 (GeneID 35695) | DRSC06406 | -0.327
Dpp10 (GeneID 33923) | DRSC00942 | -0.711
Dpp10 (GeneID 33923) | DRSC02139 | -0.558
frac (GeneID 38850) | DRSC10867 | -0.486
RpL15 (GeneID 3354918) | DRSC20963 | -0.0123
CG11828 (GeneID 43416) | DRSC14394 | 1.61
CG11828 (GeneID 43416) | DRSC22580 | 0.0733
COX7AL (GeneID 40995) | DRSC15313 | -3.15
Send1 (GeneID 33407) | DRSC00482 | 0.312
His4r (GeneID 41773) | DRSC16703 | 3.36
CG33093 (GeneID 42654) | DRSC15775 | -0.371
CG15536 (GeneID 43610) | DRSC15072 | -0.14
CG15536 (GeneID 43610) | DRSC22844 | 0.162
fd59A (GeneID 37631) | DRSC04685 | 0.000754
sens-2 (GeneID 33957) | DRSC02136 | -0.0465
sens-2 (GeneID 33957) | DRSC02613 | 0.424
sens-2 (GeneID 33957) | DRSC21374 | -3.58
CG32855 (GeneID 318250) | DRSC13131 | -0.0395
Tps1 (GeneID 33642) | DRSC00269 | 0.473
Unc-76 (GeneID 31179) | DRSC18193 | 1.32
Unc-76 (GeneID 31179) | DRSC18560 | -0.388
CG13244 (GeneID 34940) | DRSC21642 | -0.38
Ance-2 (GeneID 34806) | DRSC02539 | -0.18
RpL22 (GeneID 31022) | DRSC18707 | -0.043
RpL22 (GeneID 31022) | DRSC22819 | 2.56
